Screen size: about 53,000 sequences; about 3,700 (7%) were called active.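 The calls were made as follows: active = gene knockdowns whose robust z-score for IL-1 alpha signal is at least 2 or at most -2, so actives lie on both sides; inactive = the rest.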 Some of the results follow.
Test: Components of the Cytosolic LPS Sensing Pathway: Gene Identification via Genome-wide siRNA Screen;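 also: robust z of the log signal after scaling to non-targeting control siRNA wells of the plate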
Settings: RAW264.7 macrophages, IL-1a HTRF, actives lie on both sides, screened at 100 nM (by protocol), cells primed 5 h with Pam3CSK4 first
How it was run: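 IL-1a HTRF of supernatants after 24 hour LipidA transfection of Pam3CSK4-primed (5 hours) RAW264.7 cells, 48h post-siRNA transfection (100 nM). Scores: percent of plate negative-control median, then log-based robust z-score.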

Row | Sequence | z-score
1 | GCAAACCUCAAUCUUGAAATT against Kif15 | inactive: 0.297
2 | GCAGAAAGAAUGACAUUCCTT against Cfc1 | inactive: 0.71
3 | GCCUACAGAGUCUUAGUUATT against Tmed9 | inactive: 0.53
4 | GCUGCUGUGGCUUUUGUGGTT against Imp3 | inactive: -1.76
5 | GGAGAGAACUUGUUCAUGATT against 4833432P19Rik | inactive: -0.697
6 | GCCAGUGGUGCUAGCAGAUTT against Mtnr1a | inactive: -0.129
7 | GGAUACCUUCCUCUUACACTT against Bloc1s3 | inactive: 1.35
8 | GCUUUUCCUACCGUAAGCCTT against Cmtr2 | inactive: -0.171
9 | GCAUACUUUCCACAAUGAUTT against Vmn1r50 | inactive: 1.11
10 | GAACUGACUUCACAUAAAGTT against Nrtn | inactive: -0.616
11 | GCCAUGAAGCUAAAUAAUCTT against Optn | inactive: -1.31
12 | GGGUGUAUUACCUCUCUCUTT against Pygl | active: 2.12
13 | GGAACUUAUGGACAGUUCATT against Lrtm1 | inactive: 0.642
14 | GGAGAAAAGGAAGUUGAGGTT against Bnip3l | inactive: -1.76
15 | CCAAAGUAUGCACUUUACATT against Dcaf10 | inactive: 0.668
16 | CGACCAGACACGGAAUGUATT against Mbnl1 | inactive: 0.481
17 | GGGCAUGAAUGGUUACUUATT against Mllt6 | inactive: 1.24
18 | GCCUAUGGAAUGGACAUACTT against Nadsyn1 | inactive: 1.21
19 | GGGAGACAUUUUCAAGAUGTT against Lrrn4 | inactive: -1.75
20 | GGAUUUUUAUGAUAGUGACTT against Slc4a1ap | inactive: -0.747
21 | GGUUUAACUGUAGCAUAAGTT against Pde12 | inactive: -0.0106
22 | GGGAACUACGCACAACGAATT against H2ac1 | inactive: 0.776

Row | Sequence | z-score
23 | CCAAAAAUGAAAUCACUGATT against Krt71 | inactive: -1.93
24 | GGAUAUGUGAAAUGCAUUGTT against Asb9 | inactive: 0.219
25 | GCUAAAACCCGUUACUUCCTT against Gsta4 | inactive: 0.669
26 | CCUAUCUGGCUUCUGUUAATT against Bin1 | inactive: -0.438
27 | GGUAAAAGAAGCUCUAAAGTT against Olfr449 | inactive: 0.0924
28 | GCCAUGUGUAUGGUAGUCUTT against Olfr1247 | inactive: -1.22
29 | GGUCUUCUGGAGUUUGUGGTT against Glrx | inactive: 1.02
30 | GCAGUUAUCAAUAAUUCCCTT against Nploc4 | inactive: -0.533
31 | GCAACUAUCUCCUAUAAGGTT against Acss3 | inactive: -0.844
32 | GGUUGAUGCAUCAUUCCUATT against Adamts1 | inactive: -0.11
33 | GGCUACCAAGUUUCAUCAUTT against Tbx22 | inactive: 1.37
34 | GGUUUUAGCCACAAGUAUGTT against Utp18 | inactive: 0.67
35 | CCAUCUCCCUACUAGGUUGTT against Olfr49 | inactive: 0.635
36 | GCUAGCCAGUGCAUUCACATT against Srp68 | active: -2.96
37 | GGCCAAUGCCCUUUUUUGATT against Spem2 | inactive: 0.427
38 | GGCUUUAGUUGUCUUUUAUTT against Cxcr1 | inactive: 0.609
39 | GGUAGUAGGAGGAAUGACGTT against Ccdc93 | inactive: -0.353
40 | CGGAUACCUAGAGUGCAUCTT against Zfp42 | inactive: 0.725
41 | GGUACUUUACGAACAUCUGTT against Sall1 | inactive: 1.24
42 | GCAUUAGCUUGUUAACAUUTT against Tmtc2 | inactive: -1.09
43 | GGUUUCAGGUUGAAGACCATT against Pold2 | inactive: -1.1
44 | CCCUAAGGAGUUUUGCGUUTT against Ikzf4 | inactive: 1.58

Row | Sequence | z-score
45 | GGCUGUCAUCUACGUUCUUTT against Dhrs11 | inactive: 0.495
46 | GGAGCAAGUGAUGAUGACCTT against Pkp1 | inactive: -0.263
47 | GGCGUAUGUUUGUUGGUUGTT against Sertad3 | inactive: 0.913
48 | GGAUUCAGGCAGAAGAAAGTT against Cep57 | inactive: 0.454
49 | GGUUCAGAACGGAAGUGGCTT against Tnfrsf18 | inactive: -0.127
50 | GGGCUAUCUAACAUUAACUTT against Eef1akmt2 | inactive: -0.826
51 | CGAAAGGAAACAGUCCAGATT against Yju2 | inactive: -1.81
52 | CCUGUGUUAGGAGUUAUUCTT against Bpnt2 | inactive: 1.56
53 | GGUUUGAUGAGAAGAAACATT against Mmp3 | inactive: -0.429
54 | GCUUUAUGGAUCUACCAAATT against Fbxl3 | inactive: 1.81
55 | GGUCUUUGAGGAAAGAGGUTT against Hemk1 | inactive: -1.59
56 | GGACGAUAAGCUCUCUCAGTT against Epb41l3 | inactive: 1.62
57 | GGAAAAGAAAAGGGCGGGCTT against Tgfbr2 | inactive: 0.49
58 | GGAAAAAUUGUGCUCAACUTT against Kmt5b | inactive: -0.613
59 | CCUGCCAAUUUGUUUUUUGTT against Ccser2 | inactive: -0.54
60 | GCCCAUAAUAAGGAUCCUATT against Tmem184c | inactive: -0.27
61 | GGAGAACAGUCUUGAGAAATT against Crisp3 | inactive: -0.712
62 | GGAGAAACAGUUGUCAACUTT against Rprd2 | inactive: -0.595
63 | GACAAGGCUUCAUAAAAAGTT against Qrich1 | inactive: -0.312
64 | GUUUCCGGUCAGAGUGUGATT against Stard10 | inactive: 1.64
65 | GGCAAGUGGCUCUUUGGUGTT against Cysltr1 | inactive: -0.994
66 | CGAUUUCUGCUCCUCAUUUTT against 9130019O22Rik | inactive: -1.5

Row | Sequence | z-score
67 | GGUCAUGCAGGUUUUGAAUTT against Snd1 | inactive: 1.9
68 | CCCAAAAGUUUUUACAGCUTT against Ttpa | inactive: 0.0745
69 | GCAGCUAAUACAAACCUUATT against Scaf8 | inactive: 0.189
70 | GGCUCACAAAGAGGAAAACTT against Pcid2 | inactive: -1.16
71 | GAAGAGGGCACCUAGUUUCTT against Cox7b | inactive: 0.249
72 | GGAAGUGACAUCACAGACGTT against 1810009N02Rik | inactive: -0.265
73 | CCAUGAGCACCUACUAUGCTT against Tmem86b | inactive: -1.3
74 | GCAAGCUAUCAGGUGCAGUTT against Rnpepl1 | inactive: 0.809
75 | GGUUGAGUAGUUGAUUUUCTT against Hemgn | inactive: 0.663
76 | GCCUGAGUCAUCCUCCAAATT against Zfp446 | inactive: -0.138
77 | GGACAAAGAAAAUACGAAATT against Olfr593 | inactive: -0.295
78 | CCCUGCUAAAAUCGACCUGTT against Plekha8 | inactive: -0.912
79 | GGUUGUUCAUGAGCCGAACTT against Rpl18 | inactive: -0.0641
80 | GCAUCGCAUAUUGGAAUGCTT against Lim2 | inactive: 0.366
81 | GGGCCAUACCAUUUGGGUGTT against Wdr38 | inactive: 0.142
82 | GGAAUGUGCGGAAGACAUATT against Gfer | inactive: 0.468
83 | GGGACAGUUUUCGGACUUCTT against S1pr4 | inactive: -0.362
84 | GGACCAUCCCUGCUUAAUGTT against Brat1 | active: -2.09
85 | GGGUUUAAUCAUGAUAGAATT against Tet2 | inactive: -0.583
86 | GGAAGACGAUGACCUAAACTT against C1s2 | inactive: 0.00465
87 | GGUUCAGAAAUUUGUCAACTT against Nhp2 | inactive: 0.252
88 | GCAACUGUGAACCAGUUGUTT against Pcif1 | inactive: 0.528

Looked up one by one from above:
Row | Sequence | z-score
72 | GGAAGUGACAUCACAGACGTT against 1810009N02Rik | inactive: -0.265
77 | GGACAAAGAAAAUACGAAATT against Olfr593 | inactive: -0.295
85 | GGGUUUAAUCAUGAUAGAATT against Tet2 | inactive: -0.583
74 | GCAAGCUAUCAGGUGCAGUTT against Rnpepl1 | inactive: 0.809
81 | GGGCCAUACCAUUUGGGUGTT against Wdr38 | inactive: 0.142

Later entries.

Row | Sequence | z-score
89 | GGAGGAGCAUCCUUCAACUTT against Fcrl1 | inactive: -1.33
90 | GGAUGAAGCCUUCAUCAGGTT against Adcy6 | inactive: 0.0162
91 | GCAUAUGGCUUAACACAAATT against Tbc1d15 | inactive: 0.196
92 | CCAAAUUAUCACCCUGUUCTT against Olfr763 | inactive: -0.0232
93 | CCUCUGACACCUUAGCGAATT against Ppp1r2-ps9 | inactive: 1.43
94 | GGAGGUAGGAAGGAAGAAGTT against Rrp8 | inactive: 0.396
95 | GGAAACCUUUCGUAUUUCATT against Cbll1 | inactive: -0.0247
96 | GGAUAUUCGUUACCAUUAUTT against Msantd2 | inactive: -1.55
97 | GGACCUAAGCAGAAAACUGTT against Meis3 | inactive: 0.789
98 | CGAUAAGAAUCUCUUCCGCTT against Camkv | inactive: 0.109
99 | CCGUCUCUAUCUACCUAGGTT against Npas3 | inactive: 0.0727
100 | CGGCCGUCAGCUUCUUUUATT against Olfr283 | inactive: -0.204
101 | CCAUAAGUGAGCUUGAUGUTT against Sipa1l1 | inactive: -0.704
102 | CCGUAUUGUCCAUUGCCUCTT against Olfr577 | inactive: -0.0317
103 | GGUCAAGGUAGGCAAUGAATT against Stau2 | active: -2.32
104 | GGAAUCUGCUUGAAUAUGGTT against Tmem126a | inactive: -1.01
105 | GGCAAGUGACAUUGUUCCUTT against Sohlh1 | inactive: -1.3
106 | GGAUUUGAAGAAAGAUGGATT against Ano5 | inactive: 0.679
107 | CCAUAUUAACUACAACACCTT against Lrrc4 | inactive: 0.449

— PubChem BioAssay AID1508600 (Functional Genomics Laboratory (NCATS/FGL), 2020)
